Source: ChEMBL document CHEMBL3988442, “University of Dundee, Small-Polar-MMV Screening Library” (2021).

A: 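Whole-cell assay for inhibitors of Mycobacterium tuberculosis growth, labelled Cornell in the record; the read-out is not stated. The concentration is filed as 10 mM, unlikely as a test dose, so the dose is not known. Higher means stronger inhibition (inferred from two other growth screens of the library). About 53,000 compounds were tested under these conditions; 1.7% (about 900) showed 50% or more at least once.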
B: 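Assay on Mycobacterium tuberculosis, filed only as a heat shock assay from Cornell; the read-out is not stated. The concentration is filed as 10 mM, unlikely as a test dose, so the dose is not known. Direction is inferred from retests: higher values go with stronger inhibition. Of about 69,000 compounds tested this way, about 930 (1.4%) reached 50% or more in at least one test.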

Results are given as percent effect. The record does not define 0% and 100%; most values in the screen are far below 50% and negative numbers occur (in some assays of this library far below -100). The compounds are a random part of those screened. A dash means the value is not listed here; it may have been measured.

| Compound | A | B |
|---|---|---|
| `Cc1cc(CN(Cc2ccccc2)C2CC2)on1` | -1.932% | -15.59% |
| `O=C(CS(=O)(=O)C1CCCC1)NC(c1ccc(F)cc1)C1CC1` (centres unmarked) | 20.7% | -26.11% |
| `[H][C@@]12C[C@@H](O)CN1C[C@@H](Cc1ccccc1)N(Cc1ccccc1)C2` | 7.945% | -15.79% |
| `Cc1ccccc1C1CCN(CCNC(=O)CS(C)(=O)=O)C1` (centres unmarked) | 30.52% | -16.65% |
| `COCCCN1CCCCC12CC(=O)N(Cc1ccccn1)C2` (centres unmarked) | 7.706% | -2.615% |
| `Cn1cnc(-c2nc(C(=O)NC3CC3)c3ccccn23)c1` | -10.05% | 0.9568% |
| `N#Cc1ccc(CC(=O)N2CCCC(n3cccn3)C2)cc1` (centres unmarked) | -44.19% | 7.332% |
| `O=C(O)C(F)(F)F.[H][C@@]12CN(C(=O)Cc3cccs3)C[C@]1([H])OCCN2CC1CCCO1` (some centres unmarked) | 36.79% | 7.142% |
| `CN(C)CC(=O)N1CC2(CCN(S(=O)(=O)c3ccccc3)C2)C1` | 9.002% | -6.551% |
| `O=C1CSCN1CC(=O)N1CCCC1c1nc2ccccc2s1` (centres unmarked) | - | 0.6578% |
| `CC(C)(C)CN1CCOC[C@H]1c1nc(-c2cccc(F)c2)c[nH]1` | - | 3.049% |
| `CC(=O)N1CCCn2nc(CNS(=O)(=O)Cc3ccccc3)cc2C1` | 18.93% | 8.501% |
| `CCN(CC)CCn1cc(NC(=O)Nc2ccccc2OC)cn1` | 26.63% | -23.62% |
| `O=S(=O)(c1cn[nH]c1)N1CCCC(O)(CN2CCOCC2)CC1` (centres unmarked) | -25.54% | -13.49% |
| `COc1ccc(Nc2c[nH]c(=O)[nH]c2=O)cc1` | -13.57% | -5.577% |
| `O=C(O)C(F)(F)F.[H][C@@]12CCN(c3nncs3)C[C@@]1([H])O[C@@H](C(=O)NCc1ccco1)C2` | - | -45.14% |
| `Cc1cc(N2CCSCC2)ccc1NC(=O)N(CCO)C1CC1` | 109.4% | -1.913% |
| `CCc1c(O)nc(SCC(=O)c2ccccc2)n(-c2ccccc2)c1=O` | 13.57% | -1.186% |
| `CC(c1nc(C2CC2)no1)N1CCN(CCN2CCCC2=O)CC1` (centres unmarked) | 22.32% | -3.989% |
| `Cc1noc(C(C)C)c1C(=O)NCc1cccc(CN(C)C)c1` | -60.8% | -7.993% |
| `Cc1cc(F)c(S(=O)(=O)NCc2ccnc(N(C)C)n2)cc1F` | 18.05% | 7.257% |
| `CN1CCC(c2cccc(CCC(=O)NCC(N)=O)n2)CC1` | -2.812% | -0.2681% |
| `[H][C@]12CN(c3ccccn3)CCN1C[C@H](c1ccccc1)[C@H]2CO` | 17.23% | -15.23% |
| `CC(C)n1ccnc1CN1CCCN(C(=O)c2cnn(C)c2)CC1` | - | 13.28% |
| `CC(C)S(=O)(=O)N1CCCC(c2nccn2Cc2cccnc2)C1` (centres unmarked) | 0.6562% | 0.9517% |
| `c1cncc(COCC2CN(Cc3ccco3)Cc3ccnn3C2)c1` (centres unmarked) | -7.022% | -12.09% |
| `COc1ccc(NC(=O)c2ccco2)c(N2CCN(C(C)=O)CC2)n1` | -19.14% | 1.066% |
| `Cc1cnn(CC(=O)N2CCC3(CCC(=O)N(CCCO)C3)CC2)c1` | - | -9.165% |
| `CCc1c(C)nn2c(O)cc(C3CCN(C(=O)c4ccccn4)C3)nc12` (centres unmarked) | 36.9% | -1.377% |
| `CCCS(=O)(=O)N1CCC(NCc2c(C)nn(C)c2OC)CC1` | - | 14.64% |
| `CCOc1ncccc1C(=O)N1CCCC1Cn1cc(C)cn1` (centres unmarked) | -31.26% | 0.9374% |
| `CC(=O)NCc1cc2n(n1)CCN(Cc1cccc(Cl)c1F)C2` | -5.155% | -0.4876% |
| `COc1ccc(Cc2ncc3c(n2)CN(C(=O)CN(C)C)C3)cc1` | - | -10.06% |
| `O=C(NC1CC1)c1cc(NC(=O)N2CCCC2)ccc1Cl` | -6.294% | -1.789% |
| `O=C(NCC1CC1)C1CCC2(CCN(C(=O)c3ccoc3)CC2)O1` (centres unmarked) | -8.481% | 12.01% |
| `CCCN(CC(F)(F)F)C(=O)c1cc(F)cc2[nH]cnc12` | -1.984% | -12.14% |
| `CC(C)C(C(=O)N1CCN(Cc2ccncc2)CC1)n1cncn1` (centres unmarked) | 1.231% | -31.02% |
| `CCS(=O)(=O)N1CCC(NC(=O)c2cc(C)ccc2O)CC1` | - | 6.938% |
| `CC(C)CN(Cc1ccsc1)C(=O)CCCn1cncn1` | 1.157% | -24.25% |
| `Cc1cnn(CC2CCCCN2C(=O)Cc2ccc(C#N)cc2)c1` (centres unmarked) | -0.8452% | -7.556% |
| `COCCn1cc(C(=O)Nc2nc3c(s2)CCC3)c2ccccc21` | 41.37% | 2.529% |
| `CC(C)C(C)NC(=O)Nc1ccc(CS(=O)(=O)C(C)C)cc1` (centres unmarked) | - | 0.03143% |
| `NCC(=O)N1CCCC1c1ccc(C(=O)NCc2ccoc2)s1` (centres unmarked) | - | 6.686% |
| `Cc1ccc(CNCc2c[nH]nc2C(C)(C)C)c(OC2CCOC2)c1` (centres unmarked) | 7.575% | 18.1% |
| `O=C(CC1CCCC1)NCCn1ccc(-c2ccccn2)n1` | 30.64% | 6.451% |
| `COc1cc(-c2nccn2C(C)CCn2cccn2)cc2c1OCO2` (centres unmarked) | - | -4.459% |
| `Cc1nc(CN2CCCC(NCCOc3ccccc3)C2)no1` (centres unmarked) | -8.902% | -5.993% |
| `Cc1ccc(NC(=O)Cn2cc(I)cn2)cc1C` | 4.071% | 5.064% |
| `O=C(CN1CCOCC1)Nc1ncc(Br)cc1Br` | 9.677% | -0.8541% |
| `COCC1CN(c2ncc(F)cn2)Cc2cnn(C)c21.O=C(O)C(F)(F)F.O=C(O)C(F)(F)F` (centres unmarked) | 23.02% | 9.404% |
| `Cn1cc(C2CCCN2C(=O)c2ccc(Br)o2)cn1` (centres unmarked) | 22.3% | 10.82% |
| `CCN(C)c1ccc(CNC(=O)CCn2cc(C)cn2)cc1F` | 0.2266% | 5.236% |
| `COCCC1(CNC(=O)Nc2ccnc(C)c2)CCCC1` | 6.943% | -11.93% |
| `O=C(N1CCCC(n2cncn2)C1)C1(c2ccc(Cl)cc2)CCC1` (centres unmarked) | 17.23% | -22.26% |
| `CCCN(C(=O)c1cnns1)C1CCCN(Cc2ccccc2)C1` (centres unmarked) | 3.389% | -14.7% |
| `CN1CCC(NC(=O)C2CN(c3cncnc3)CCO2)CC1` (centres unmarked) | -6.576% | -8.021% |
| `O=C(O)c1cccnc1CN(Cc1ccsc1)C1CC1` | 16.52% | -44.42% |
| `CC(Cn1cccn1)NC(=O)N1CCC(NS(C)(=O)=O)CC1` (centres unmarked) | -3.128% | -2.969% |
| `COCCn1cc2c(n1)C(CNCc1ccco1)OCC2.O=C(O)C(F)(F)F.O=C(O)C(F)(F)F` (centres unmarked) | 10.03% | -14.07% |
| `CSc1ccc2c(C)cc(N[C@@H](C)CO)nc2c1` | 4.062% | 21.6% |
| `Cc1nc(C2(O)CCCNCC2)sc1CCOc1ccc(F)cc1.Cl` (centres unmarked) | -40.78% | -29.66% |
| `O=C(NS(=O)(=O)c1ccc(Cl)cc1F)c1cccc2c1OCCO2` | 22.12% | -3.517% |
| `CCCC1c2ccccc2CCN1CCS(C)(=O)=O` (centres unmarked) | -6.988% | 6.502% |
| `CC(C)NC(=O)N1CCC(c2nccn2C(C)C)CC1` | 14.61% | 3.258% |
| `[H][C@]12CC[C@@]3(N=C(C)N(C)C3=O)[C@@]1([H])CN(C(=O)NCC(C)C)C2` | 7.093% | -7.404% |

For reference, 8 entries once more:

{"compound": "CC(=O)N1CCCn2nc(CNS(=O)(=O)Cc3ccccc3)cc2C1", "A": 18.93, "B": 8.501}
{"compound": "COc1ccc(Nc2c[nH]c(=O)[nH]c2=O)cc1", "A": -13.57, "B": -5.577}
{"compound": "NCC(=O)N1CCCC1c1ccc(C(=O)NCc2ccoc2)s1", "stereo": "centres unmarked", "B": 6.686}
{"compound": "O=C(O)c1cccnc1CN(Cc1ccsc1)C1CC1", "A": 16.52, "B": -44.42}
{"compound": "CC(C)(C)CN1CCOC[C@H]1c1nc(-c2cccc(F)c2)c[nH]1", "B": 3.049}
{"compound": "CC(C)C(C)NC(=O)Nc1ccc(CS(=O)(=O)C(C)C)cc1", "stereo": "centres unmarked", "B": 0.03143}
{"compound": "Cc1noc(C(C)C)c1C(=O)NCc1cccc(CN(C)C)c1", "A": -60.8, "B": -7.993}
{"compound": "O=C(NS(=O)(=O)c1ccc(Cl)cc1F)c1cccc2c1OCCO2", "A": 22.12, "B": -3.517}